According to article PMC5047049, “Characterization of a functional C3A liver spheroid model” (Toxicology Research, 2016):

System: C3A spheroids
Experiment: Visualisation of compound penetration into spheroids by LightSheet microscopy
Assay type: cell-based
Settings: 11 day old 750 cell spheroids (around 263 μm diameter), 3 μg per ml for 24 hours

COc1cccc2c1C(=O)c1c(O)c3c(c(O)c1C2=O)C[C@@](O)(C(=O)CO)C[C@@H]3O[C@H]1C[C@H](N)[C@H](O)[C@H](C)O1 [doxorubicin]
Penetration throughout the spheroid: Penetration of doxorubicin throughout the spheroid core was demonstrated; also recorded: fluorescing throughout the spheroid core; also recorded: can penetrate into cells in the core of a spheroid

“Also recorded” adds a separate entry of the source.
